# Assay results reported in PubChem BioAssay AID2685 (National Center for Advancing Translational Sciences (NCATS), 2010).
# This is one part of the list. Shown are side measurements of this screen, not its main read-out; they come without a call. Most of these compounds were active or inconclusive in the main read-out, so they are no random draw. Potencies come from curve fits of mixed quality, noted in brackets.
# Experiment: qHTS Assay for Lipid Storage Modulators in Drosophila S3 Cells;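 as to cell number change: cells counted by Cell Tracker Red CMTPX staining in the red channel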
# Settings: BODIPY lipid droplet fluorescence, 18-24 h; for cell number change: measured here: cell count max response, cells fed with added oleic acid
# How it was run: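 Drosophila S3 cells got compounds at several concentrations plus oleic acid (400 uM solution). Laser-scanning cytometry with 488 nm excitation read lipid droplets at 500-530 nm and cells at 575-640 nm. Percent activity was relative to 20 uM Triacsin C.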
# [1] = measured here: lipid fluorescence (Fed channel) AC50, cells fed with added oleic acid
# [2] = measured here: cell number channel AC50, cells fed with added oleic acid
SMILES,cell number change,AC50 [1],AC50 [2]
O=C(NC(c1ccccc1)c1ccccc1)c1ccc(CO)cc1,-4.44%,"29100 nM [rising, single point]",
CCOc1ccc(S(=O)(=O)Nc2cc(C)ccn2)c2ccccc12,19.5%,"2060 nM [rising, partial curve]","651 nM [rising, full curve, poor fit]"
Cc1ccc(S(=O)(=O)NCC2CCC(C(=O)NCCCN3CCOCC3)CC2)cc1 (centres undefined),2.84%,"206 nM [falling, full curve]",
COc1ccc(-c2cnnn2-c2ccc(NC(=O)c3ccco3)cc2)cc1OC,35%,,"3260 nM [rising, full curve]"
O=C(Nc1ccc2c(c1)OCCO2)C1CC(O)CN1C(=O)Nc1ccccc1 (centres undefined),22.3%,,
CCOc1ccccc1NC(=O)CN1C(=O)NC(Cc2c[nH]c3ccccc23)C1=O (centres undefined),9.65%,,"6510 nM [rising, single point]"
O=C(NCc1ccccn1)C(=O)Nc1cc2c3c(c1)CC(=O)N3CCC2,40.7%,,"2060 nM [rising, full curve]"
NC(=O)c1ccc(NC(=O)COc2cccc3c2CCNC3=O)cc1,36%,,"20600 nM [rising, single point]"
CC(C)[C@H](NC(=O)Nc1cccc(Br)c1)C(=O)O,-1.15%,"146 nM [falling, full curve]",
c1ccc(Cn2nnc3cnccc32)cc1,-0.803%,"20600 nM [falling, partial curve, poor fit]",
Cc1cc(C)c(S(=O)(=O)N2CCOC2CNC(=O)C(=O)NCc2cccnc2)c(C)c1 (centres undefined),24.8%,"291 nM [rising, full curve, poor fit]","3660 nM [rising, full curve, poor fit]"
COc1cc(CCC(=O)Nc2ccc(Cl)c(C(F)(F)F)c2)cc(OC)c1OC,41.2%,"14600 nM [rising, partial curve]","14600 nM [rising, single point]"
CC1(C)Cc2c(c(N3CCOCC3)nc3sc(C(N)=O)c(N)c23)CO1,1.52%,"1640 nM [falling, partial curve, poor fit]",
O=C(Nc1ccc(Cl)cc1)Nc1cc(S(=O)(=O)N2CCOCC2)ccc1N1CCCC1,45.9%,,"20600 nM [rising, partial curve]"
CCOc1ccc(-n2c(-c3ccc(Cl)cc3)c[n+]3c2SCC3)cc1,-32.5%,"820 nM [falling, full curve, poor fit]","5.17 nM [falling, full curve, poor fit]"
CCOc1ccc(C(=O)/C=C/c2cc(OC)c(OC)c(OC)c2)cc1,13.8%,"20600 nM [rising, partial curve]",
CCOc1ccc2ccccc2c1/C=N\NC(=O)c1ccc([N+](=O)[O-])cc1,,"259 nM [falling, full curve]",
NC(=O)c1ccc(Cl)c2ccccc12,16.1%,"2310 nM [rising, single point]",
Cc1nc(N)sc1-c1csc(Nc2ccc(S(N)(=O)=O)cc2)n1,-16.4%,,

# Nothing new here: entries from further up.
SMILES,cell number change,AC50 [1],AC50 [2]
CC1(C)Cc2c(c(N3CCOCC3)nc3sc(C(N)=O)c(N)c23)CO1,1.52%,"1640 nM [falling, partial curve, poor fit]",
O=C(Nc1ccc(Cl)cc1)Nc1cc(S(=O)(=O)N2CCOCC2)ccc1N1CCCC1,45.9%,,"20600 nM [rising, partial curve]"
CCOc1ccc(-n2c(-c3ccc(Cl)cc3)c[n+]3c2SCC3)cc1,-32.5%,"820 nM [falling, full curve, poor fit]","5.17 nM [falling, full curve, poor fit]"

# Continued:

SMILES,cell number change,AC50 [1],AC50 [2]
Cc1ccc(CNC(=O)CCCc2c[nH]c3ccccc23)cc1,24.4%,"5170 nM [falling, single point]","1840 nM [rising, partial curve, poor fit]"
COC(=O)c1nc(NC(=S)NC(=O)c2cccs2)sc1C,-25.2%,"6510 nM [falling, single point]",
CC(C)C(NC(=O)C1CCC(C(C)(C)C)CC1)C(=O)NCc1cccnc1 (centres undefined),,"4110 nM [rising, single point]",
CC(=O)N1c2ccc(S(=O)(=O)N3CCCC3)cc2CC1C(=O)NCc1ccccc1F (centres undefined),,"7310 nM [rising, partial curve]","731 nM [falling, single point]"
O=C(c1ccc(COc2ccc(Cl)cc2)o1)N1N=C(C(F)F)CC1(O)C(F)F (centres undefined),-84.1%,"6510 nM [rising, single point]","6510 nM [falling, partial curve]"
COc1ccc(C2CC(c3cccs3)=NN2c2nc(-c3ccccc3)cs2)cc1OC (centres undefined),,"184 nM [rising, full curve, poor fit]",
CC1(C(=O)NCc2cccnc2)CCC(=O)N1CCc1ccccc1 (centres undefined),12.2%,"29.1 nM [rising, full curve, poor fit]",
O=C(NOCc1ccccc1)c1ccc(Cl)cc1,3.98%,"5.17 nM [rising, full curve, poor fit]",
O=C(CSc1nnc(-c2ccccc2Br)o1)N1CCOCC1,9.21%,,
O=C(CCC(=O)Nc1ccc(F)cc1)N/N=C/c1ccc(Br)cc1,-1.8%,"6510 nM [rising, single point]",
O=C(Nc1cc(Sc2nc3ccccc3s2)cc([N+](=O)[O-])c1)c1cccc(F)c1F,-1.97%,"1300 nM [rising, full curve, poor fit]",
CC1CCCC(NC(=O)C2CC(=O)N(Cc3ccccc3)C2)C1C (centres undefined),2.44%,"116 nM [falling, full curve, poor fit]",
C=CCNC(=O)c1ccccc1NC(=O)Nc1ccccc1,7.29%,"1030 nM [rising, full curve]",
CCOCCCN(C)C1CCN(C(=O)c2oc3ccccc3c2NC(=O)Cc2cccc([N+](=O)[O-])c2)CC1,18.6%,"29100 nM [rising, single point]","517 nM [rising, partial curve, poor fit]"
CC(=O)Nc1sc(C)c(C)c1C(=O)OCC(=O)NCc1ccc(Cl)cc1,10.8%,"2910 nM [falling, partial curve]","651 nM [rising, partial curve, poor fit]"
CCCc1cc(Nc2cccc(OC)c2)n2ncnc2n1,,"2060 nM [rising, single point]",
Cc1cc(-c2ccc(N3C(=O)CCC3=O)c(C)c2)ccc1N1C(=O)CCC1=O,-0.455%,,
CCNc1ccc(N=Nc2c(C)n(C)n(-c3ccccc3)c2=O)cc1,-26.9%,,"3660 nM [falling, single point]"
